Measured values: publication PMC6830812
Changes are numbered by the printed parent chain. Numbers in names are those of the source. No constants are given. Whether binding was seen depends on the method and setting. Binding seen in cells or lysates may run through a third protein. A result given as binding can be weak or reduced; the word gives no strength. Tags and fused reporters may be left off the sequences shown.

T1: MBP-AtPdc1 (Arabidopsis) (UniProt O82647)
T1 sequence: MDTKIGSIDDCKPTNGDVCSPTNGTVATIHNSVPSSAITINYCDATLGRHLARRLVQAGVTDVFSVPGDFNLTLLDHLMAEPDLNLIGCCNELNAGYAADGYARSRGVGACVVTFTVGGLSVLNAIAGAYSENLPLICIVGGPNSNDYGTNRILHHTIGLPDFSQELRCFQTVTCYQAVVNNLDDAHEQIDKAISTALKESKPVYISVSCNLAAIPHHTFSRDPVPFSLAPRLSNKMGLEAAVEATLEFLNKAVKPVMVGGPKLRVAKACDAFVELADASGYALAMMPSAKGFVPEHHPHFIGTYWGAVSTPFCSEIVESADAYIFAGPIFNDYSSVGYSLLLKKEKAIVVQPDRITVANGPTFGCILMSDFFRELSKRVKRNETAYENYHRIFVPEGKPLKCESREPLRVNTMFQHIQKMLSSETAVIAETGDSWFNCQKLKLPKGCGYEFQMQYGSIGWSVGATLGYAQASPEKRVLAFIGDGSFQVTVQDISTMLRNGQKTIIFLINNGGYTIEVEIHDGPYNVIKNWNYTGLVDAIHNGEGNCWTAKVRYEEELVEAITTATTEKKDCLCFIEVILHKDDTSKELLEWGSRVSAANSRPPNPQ

T2: MBP-tagged yeast Pdc1p (yeast (Saccharomyces cerevisiae)) (UniProt P06169)
T2 sequence: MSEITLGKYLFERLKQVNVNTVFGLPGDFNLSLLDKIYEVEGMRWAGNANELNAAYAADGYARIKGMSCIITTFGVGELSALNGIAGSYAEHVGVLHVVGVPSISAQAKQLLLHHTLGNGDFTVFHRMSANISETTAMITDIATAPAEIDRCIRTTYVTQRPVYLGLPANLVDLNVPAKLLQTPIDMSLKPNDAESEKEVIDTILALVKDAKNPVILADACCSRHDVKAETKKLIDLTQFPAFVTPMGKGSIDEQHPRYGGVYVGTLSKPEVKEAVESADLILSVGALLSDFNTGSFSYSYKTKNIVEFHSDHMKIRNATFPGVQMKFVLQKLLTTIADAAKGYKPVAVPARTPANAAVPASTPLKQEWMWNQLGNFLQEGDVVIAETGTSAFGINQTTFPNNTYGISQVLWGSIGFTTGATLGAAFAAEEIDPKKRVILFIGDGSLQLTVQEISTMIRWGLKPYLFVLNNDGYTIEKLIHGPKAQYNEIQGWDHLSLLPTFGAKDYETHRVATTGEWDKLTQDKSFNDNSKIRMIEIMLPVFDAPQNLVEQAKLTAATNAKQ

B1: His6-AtAdh1 (expressed in yeast) (enzyme, UniProt P06525 1-379)
chain: MSTTGQIIRCKAAVAWEAGKPLVIEEVEVAPPQKHEVRIKILFTSLCHTDVYFWEAKGQTPLFPRIFGHEAGGIVESVGEGVTDLQPGDHVLPIFTGECGECRHCHSEESNMCDLLRINTERGGMIHDGESRFSINGKPIYHFLGTSTFSEYTVVHSGQVAKINPDAPLDKVCIVSCGLSTGLGATLNVAKPKKGQSVAIFGLGAVGLGAAEGARIAGASRIIGVDFNSKRFDQAKEFGVTECVNPKDHDKPIQQVIAEMTDGGVDRSVECTGSVQAMIQAFECVHDGWGVAVLVGVPSKDDAFKTHPMNFLNERTLKGTFFGNYKPKTDIPGVVEKYMNKELELEKFITHTVPFSEINKAFDYMLKGESIRCIITMGA
B2: nYFP-AtAdh1 (enzyme, UniProt P06525 1-379)
chain: B1 chain
B3: Arabidopsis His6-AtPdc1 (expressed in yeast) (enzyme, UniProt O82647 1-607)
chain: T1 sequence
B4: nYFP-AtPdc1 (enzyme, UniProt O82647 1-607)
chain: T1 sequence
B5: yeast His6-Pdc1p (enzyme, UniProt P06169 1-563)
chain: T2 sequence
B6: yeast His6-Pdc1^S455F mutant (enzyme, UniProt P06169 1-563)
chain: T2 sequence with S455F
B7: yeast His6-Adh1p (enzyme, UniProt P00330 1-348)
chain: MSIPETQKGVIFYESHGKLEYKDIPVPKPKANELLINVKYSGVCHTDLHAWHGDWPLPVKLPLVGGHEGAGVVVGMGENVKGWKIGDYAGIKWLNGSCMACEYCELGNESNCPHADLSGYTHDGSFQQYATADAVQAAHIPQGTDLAQVAPILCAGITVYKALKSANLMAGHWVAISGAAGGLGSLAVQYAKAMGYRVLGIDGGEGKEELFRSIGGEVFIDFTKEKDIVGAVLKATDGGAHGVINVSVSEAAIEASTRYVRANGTTVLVGMPAGAKCCSDVFNQVVKSISIVGSYVGNRADTREALDFFARGLVKSPIKVVGLSTLPEIYEKMEKGQIVGRYVVDTSK

Key:
MBP-AtPdc1 (Arabidopsis) = target: T1, MBP-AtPdc1 (Arabidopsis); assay: pull-down; MBP-tagged proteins from E. coli held on the maltose column capture GST-His6-tagged proteins from E. coli; captured protein detected with anti-His antibody; MBP as negative control; only the target purified
[1] = target: T2, MBP-tagged yeast Pdc1p (yeast (Saccharomyces cerevisiae)); assay: as above
[2] = target: CIRV Flag-p36 replication protein (carnation Italian ringspot virus (CIRV)); assay: co-IP; Flag-affinity purification of the Flag-tagged replication proteins from the detergent-solubilized membrane fraction of yeast; samples cross-linked with formaldehyde in intact yeast cells; co-purified His6-tagged proteins detected with anti-His antibody; in Fig 2I samples taken 0, 1 h and 2.5 h after cycloheximide (100 ug/ml)
[3] = target: CIRV p36-cYFP (carnation Italian ringspot virus (CIRV)); assay: split reporter; BiFC in N. benthamiana leaves; cYFP-tagged replication proteins and nYFP-tagged host proteins expressed via agroinfiltration; confocal microscopy with peroxisomal or mitochondrial markers
[4] = target: CIRV Flag-p95 replication protein (carnation Italian ringspot virus (CIRV)); assay: co-IP; Flag-affinity purification of the Flag-tagged replication proteins from the detergent-solubilized membrane fraction of yeast; samples cross-linked with formaldehyde in intact yeast cells; co-purified His6-tagged proteins detected with anti-His antibody; in Fig 2I samples taken 0, 1 h and 2.5 h after cycloheximide (100 ug/ml)

Row | Molecule | binding [2] | binding [4] | other results
1 | GST-His6-p33C (C-terminal, soluble portion of TBSV p33) (tomato bushy stunt virus (TBSV)) (domain or fragment) | – | – | binding (MBP-AtPdc1 (Arabidopsis)): binds; binding [1]: binds
2 | B1 | binds | – | –
3 | B2 | – | – | binding [3]: binds
4 | B3 | binds | binds | –
5 | B4 | – | – | binding [3]: binds
6 | B5 | binds | binds | –
7 | B6 | binds | binds | –
8 | B7 | binds | binds | –
